Measured values from PubChem BioAssay (NCATS).
Inconclusive results, whose numbers are uncertain, are shown with a selection of clear calls. A potency beside an inconclusive call is a rough fit, not a confirmed value. Active and inactive are the calls of the source. The call rests on the fitted dose curve; in most records, active means well fitted cell-killing curve with a large enough effect; inconclusive means small, poorly fitted or top-dose-only effect; inactive means flat fitted curve, though single readings scatter.
Potency means the concentration at half of the fitted maximal effect.

Test: Quantitative highthroughput screen to assess conditional lethalithy of NOMO1 cells grown in RPMI1640 with untreated serum (RPMI+s) (AID 1963876); further: nearly all actives have a fitted effect of over 35% in size
Details: NOMO1 AML cells in RPMI+serum, CellTiter-Glo viability, 48 h; viability: at 45.8 µM (top of the series)
Description: Assay Provider: Jason Cantor Ph.D.
Department of Biochemistry
University of Wisconsin-Madison, Madison, WI, USA
Chemical screening studies have identified drug sensitivities across hundreds of cancer cell lines but most putative therapeutics fail to translate. Discovery and development of drug candidates in models that more accurately reflect nutrient levels in human blood is a major challenge. Here we performed high-throughput screens in conventional versus Human Plasma-Like Medium (HPLM) to identify compounds that were "missed" when screening using the artificial culture condition. Sets of conditional anticancer compounds spanned phases of clinical development and included non-oncology drugs were assessed. […] We also traced conditional phenotypes for several chemotherapeutics to availability of HPLM-specific metabolites and confirmed others for compounds whose reported targets are encoded by nonessential genes. Our findings establish generalizable strategies for exploiting conditional lethality in HPLM to reveal therapeutic candidates and mechanisms of action in cancer cells.
Described herein are the results of each viability screens against three cell lines: NOMO1 (an acute myeloid leukemia cell line); P12-Ichikawa (a T-cell acute lymphoblastic leukemia); and SEM (a B-cell ALL). Each assay was screened using 3 different cell culture media: homemade human plasma-Like medium with 10% dialyzed fetal bovine serum (HPLM+ds); RPMI1640 with 10% untreated FBS and 5mM glucose (RPMI+s); and RPMI1640 with 10% dialyzed fetal bovine serum and 5 mM glucose (RPMI+ds).
PROTOCOL TABLE (as described by Inglese J, Shamu CE and Guy RK. 2007)
SEQUENCE No. (e.g., 1, 2, 3, etc.); […] (e.g., Cells, Incubation, Reagent, etc.); VALUE and DESCRIPTION.
1; Cells; 5 uL; white, solid bottom 1536-well Greiner assay plate.
2; Compounds; 23 nL; Kalypsis pin tool (Wako USA) equipped with a 1536-well pin head to transfer to the assay plates.
3; Incubation; 48 hours; 37C incubation.
4; Reagent; 3 uL; CellTiter Glo (Promega).
5; Incubation; 5 min, room temperature
6; Detection; Luminescence, Viewlux PerkinElmer.
NOTES (numbers refer to Sequence numbers above)
1. Briefly, 5 ul of cell reagent was dispensed using a Multidrop Combi Dispenser. The NOMO1 and SEM cells were plated at 500 cells/well and the P12-Ichikawa line at 1000 cells/well.
2. After seeding the cells, 23 nL of MIPE 4.1 library compounds (in DMSO) were added to each plate using a Kalypsys 1536 Pintool dispenser. Bortezomib at final concentration of […] and DMSO were added to each plate as positive and negative controls respectively. For each screen, MIPE 4.1 compounds were added over an eleven-point concentration range […] in 3-fold dilutions.
3. Each plate was covered with a stainless steel gasketed lid to prevent evaporation and incubated for 48 hour at 37C, 95% relative humidity, and 5% CO2.
4-5. Three microliter CellTilter-GloTM luminescent substrate mix (Promega) reagent was added to the assay plate and incubated at room temperature for 5 min.
6. The luminescence signal was measured using a ViewLux (PerkinElmer) multiplate reader with a 2 second exposure time per plate. Data for each compound were normalized as percent viability such that measurements for DMSO and the empty well controls in each plate were defined as 100% and 0%, respectively.
For COc1cc(=C2C=c3ccccc3=N2)[nH]c1=Cc1[nH]c(C)cc1C, the Potency was “inactive”.
For NC(=NCCCCCCN=C(N)N=C(N)Nc1ccc(Cl)cc1)N=C(N)Nc1ccc(Cl)cc1, the Potency was inconclusive: 33.2 µM [cytotoxic, single point].
In the case of COc1cc2nc(N(C)CCCNC(=O)C3CCCO3)nc(N)c2cc1OC (stereo not given), the Potency is reported as inconclusive: 3.32 µM [cytotoxic, full curve].
For O=C(O)CCC1CCC(c2cc(F)ccc2F)(S(=O)(=O)c2ccc(Cl)cc2)CC1 (stereo not given), the Potency was active: 1.48 µM.
For NCCCCNCCCN, the Potency was inconclusive: 33.2 µM [cytotoxic, single point].
With CNc1nc(-c2ccc3c(N)n[nH]c3c2)cc(N2C[C@@H](C(=O)NC3CCCCC3)CC[C@@H]2C)n1 the Potency was inconclusive: 29.6 µM [cytotoxic, single point].
With Clc1cccc(-c2nnnn2Cc2cccnc2)c1Cl the Potency was inconclusive: 1.32 µM [cytotoxic, full curve].
With CN(C)c1ccc(C(=C2C=CC(=[N+](C)C)C=C2)c2ccc(N(C)C)cc2)cc1 the Potency was active: 0.148 µM.
For CC[C@@H]([C@H](C)O)n1ncn(-c2ccc(N3CCN(c4ccc(OCC5CO[C@@](Cn6cncn6)(c6ccc(F)cc6F)C5)cc4)CC3)cc2)c1=O (stereo not given in full), the Potency was “inactive”.
In the case of O=c1cc(-c2ccc(O)cc2)oc2cc(O)cc(O)c12, the Potency is reported as inconclusive: 23.5 µM [cytotoxic, single point].
With CCCS(=O)c1ccc2nc(NC(=O)OC)[nH]c2c1 (stereo not given) the Potency was active: 20.9 µM.
For CC(C)NCC(O)COc1ccc(CCOCC2CC2)cc1 (stereo not given), the Potency was inconclusive: 29.6 µM [cytotoxic, single point].
In the case of O=C(NCCO[N+](=O)[O-])c1cccnc1, the Potency is reported as “inactive”.
In the case of CC(C)[C@H](CO)Nc1nc(Nc2ccc(C(=O)O)c(Cl)c2)c2ncn(C(C)C)c2n1, the Potency is reported as inconclusive: 20.9 µM [cytotoxic, partial curve].
With CCOC(=O)[C@H](CCc1ccccc1)N[C@H]1CS[C@H](c2cccs2)CN(CC(=O)O)C1=O the Potency was active: 10.5 µM.
In the case of NC(=O)Nc1sc(-c2ccc(F)cc2)cc1C(N)=O, the Potency is reported as inconclusive: 20.9 µM [cytotoxic, partial curve].
With Cc1ccc(C(=O)Nc2ccc(S(=O)(=O)O)c3cc(S(=O)(=O)O)cc(S(=O)(=O)O)c23)cc1NC(=O)c1cccc(NC(=O)Nc2cccc(C(=O)Nc3cc(C(=O)Nc4ccc(S(=O)(=O)O)c5cc(S(=O)(=O)O)cc(S(=O)(=O)O)c45)ccc3C)c2)c1 the Potency was “inactive”.
With CC1CCC(C(=O)N(c2cc(C#CC(C)(C)C)sc2C(=O)O)C2CCC(O)CC2)CC1 (stereo not given) the Potency was inconclusive: 20.9 µM [cytotoxic, partial curve, poor fit].
For O=C(Nc1ccc([N+](=O)[O-])cc1Cl)c1cc(Cl)ccc1O, the Potency was inconclusive: 0.833 µM [cytotoxic, full curve, poor fit].
With C[N+]1(C)[C@@H]2CC(OC(=O)[C@H](CO)c3ccccc3)C[C@H]1[C@H]1O[C@@H]12 (stereo not given in full) the Potency was “inactive”.
For CC[C@H]1OC(=O)[C@H](C)[C@@H](O[C@H]2C[C@@](C)(OC)[C@@H](O)[C@H](C)O2)[C@H](C)[C@@H](O[C@@H]2O[C@@H](C)C[C@H](N(C)C)[C@@H]2O)[C@](C)(O)C[C@@H](C)C(=O)[C@H](C)[C@@H](O)[C@]1(C)O, the Potency was inconclusive: 37.2 µM [cytotoxic, single point].
With CC(C)C1CCC(C(=O)N[C@H](Cc2ccccc2)C(=O)O)CC1 (stereo not given in full) the Potency was “inactive”.
For Cn1cnc(-c2cc3nccc(Oc4ccc(NC(=S)NC(=O)Cc5ccccc5)cc4F)c3s2)c1, the Potency was inconclusive: 33.2 µM [cytotoxic, single point].
For C[C@]12C=CC(=O)C=C1CC[C@@H]1[C@@H]2[C@@H](O)C[C@@]2(C)[C@@H]1CC[C@]2(O)C(=O)CO, the Potency was inconclusive: 37.2 µM [cytotoxic, single point].
For Cc1ccc2nc(NCCN)c3ncc(C)n3c2c1, the Potency was inconclusive: 29.6 µM [cytotoxic, single point].
With Cc1nc2ccc(C(=O)N3CCC4(CC3)CC(=O)c3c(cnn3C(C)C)C4)cc2[nH]1 the Potency was “inactive”.
In the case of CCCC1OC2C[C@@H]3[C@H]4CCC5=CC(=O)C=C[C@]5(C)[C@H]4C(O)C[C@]3(C)[C@]2(C(=O)CO)O1 (stereo not given in full), the Potency is reported as inconclusive: 37.2 µM [cytotoxic, single point].
With CC1(C)CCC(C)(C)c2cc(NC(=O)c3ccc(C(=O)O)cc3)ccc21 the Potency was inconclusive: 33.2 µM [cytotoxic, partial curve, poor fit].
In the case of C[C@]1(CO)CN(c2cc(C(=O)Nc3ccc4c(c3)-c3c(c(C(N)=O)nn3-c3ccc(F)cc3)CC4)c(Cl)cn2)C[C@@]1(C)CO, the Potency is reported as inconclusive: 37.2 µM [cytotoxic, single point].
For C=C1c2cccc(O)c2C(O)=C2C(=O)[C@@]3(O)C(O)=C(C(N)=O)C(=O)[C@@H](N(C)C)[C@@H]3[C@@H](O)[C@H]12, the Potency was “inactive”.
For CNC(=O)c1ccc(N2C(=S)N(c3cnc(C#N)c(C(F)(F)F)c3)C(=O)C23CCC3)cc1F, the Potency was inconclusive: 4.69 µM [cytotoxic, partial curve].
In the case of Cc1cnc(C(=O)O)c[n+]1[O-], the Potency is reported as “inactive”.
With C=CC(=O)Nc1cc(NC(=O)c2ccc(C)c(NC(=O)c3ccno3)c2)cc(C(F)(F)F)c1 the Potency was “inactive”.
In the case of C[C@H](NC(=O)C(=O)Nc1ccccc1C(C)(C)C)C(=O)N[C@@H](CC(=O)O)C(=O)COc1c(F)c(F)cc(F)c1F, the Potency is reported as inconclusive: 18.7 µM [cytotoxic, partial curve].
For NCc1ccc(OCCCc2sc(-c3ccc4c(c3)/C(=N/Nc3nc5ccccc5s3)CCC4)nc2C(=O)O)cc1, the Potency was active: 0.0059 µM.
For Cc1nc2c([nH]1)CCN(C(=O)c1ccc(NC(=O)c3ccccc3-c3ccccc3)cc1)c1ccccc1-2, the Potency was “inactive”.
For Cc1[nH]c(=O)c(C#N)cc1-c1ccncc1, the Potency was inconclusive: 18.7 µM [cytotoxic, partial curve, poor fit].
For CCCCC[C@H](O)C=C[C@H]1[C@H](O)CC(=O)[C@H]1CC=CCCCC(=O)O, the Potency was inconclusive: 37.2 µM [cytotoxic, single point].
For Cn1c(=O)c(F)c(Nc2ccc(I)cc2F)c2c(=O)n(C[C@@H](O)CO)cnc21, the Potency was inconclusive: 0.0296 µM [cytotoxic, full curve].
With CC(=O)NC(CS)C(=O)O (stereo not given) the Potency was inconclusive: 11.8 µM [cytotoxic, single point].
